Here are results for 39 targets from the supplement of paper PMC12819154, “High-throughput peptide-centric local stability assay extends protein–ligand identification to membrane proteins, tissues and bacteria” (Nature Structural & Molecular Biology, 2025).

The chains behind the UniProt entries cited, without tags or fusion partners. Where a name states a change or a piece, a line headed by the entry shows the natural chain unless it says otherwise.
UniProt P28340: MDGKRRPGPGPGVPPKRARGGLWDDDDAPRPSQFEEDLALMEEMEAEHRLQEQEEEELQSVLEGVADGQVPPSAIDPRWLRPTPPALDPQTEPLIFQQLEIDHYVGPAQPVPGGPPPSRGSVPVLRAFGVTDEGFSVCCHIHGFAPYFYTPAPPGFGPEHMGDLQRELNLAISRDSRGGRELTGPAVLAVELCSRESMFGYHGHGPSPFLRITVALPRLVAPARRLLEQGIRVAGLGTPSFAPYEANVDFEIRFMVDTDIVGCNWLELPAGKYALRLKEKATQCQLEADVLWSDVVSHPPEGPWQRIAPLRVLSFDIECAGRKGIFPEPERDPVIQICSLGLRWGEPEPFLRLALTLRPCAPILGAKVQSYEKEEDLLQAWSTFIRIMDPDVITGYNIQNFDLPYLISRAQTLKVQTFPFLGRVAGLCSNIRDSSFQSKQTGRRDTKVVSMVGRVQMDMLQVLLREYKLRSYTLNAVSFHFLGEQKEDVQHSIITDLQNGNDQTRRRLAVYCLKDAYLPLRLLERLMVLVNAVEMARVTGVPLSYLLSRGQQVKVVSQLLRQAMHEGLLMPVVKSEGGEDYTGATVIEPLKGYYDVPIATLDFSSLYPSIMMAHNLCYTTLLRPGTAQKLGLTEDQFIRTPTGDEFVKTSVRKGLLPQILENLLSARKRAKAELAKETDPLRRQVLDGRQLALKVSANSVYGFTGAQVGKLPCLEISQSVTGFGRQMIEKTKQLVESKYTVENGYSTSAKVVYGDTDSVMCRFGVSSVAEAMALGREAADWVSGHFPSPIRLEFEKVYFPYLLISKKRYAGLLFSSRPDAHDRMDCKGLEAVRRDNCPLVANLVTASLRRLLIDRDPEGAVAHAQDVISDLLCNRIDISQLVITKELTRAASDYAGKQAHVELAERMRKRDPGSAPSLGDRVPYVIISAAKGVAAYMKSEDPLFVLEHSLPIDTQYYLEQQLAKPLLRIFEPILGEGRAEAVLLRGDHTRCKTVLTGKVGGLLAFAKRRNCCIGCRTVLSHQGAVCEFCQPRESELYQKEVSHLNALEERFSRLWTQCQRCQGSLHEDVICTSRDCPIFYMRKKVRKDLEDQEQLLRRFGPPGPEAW
UniProt P40424: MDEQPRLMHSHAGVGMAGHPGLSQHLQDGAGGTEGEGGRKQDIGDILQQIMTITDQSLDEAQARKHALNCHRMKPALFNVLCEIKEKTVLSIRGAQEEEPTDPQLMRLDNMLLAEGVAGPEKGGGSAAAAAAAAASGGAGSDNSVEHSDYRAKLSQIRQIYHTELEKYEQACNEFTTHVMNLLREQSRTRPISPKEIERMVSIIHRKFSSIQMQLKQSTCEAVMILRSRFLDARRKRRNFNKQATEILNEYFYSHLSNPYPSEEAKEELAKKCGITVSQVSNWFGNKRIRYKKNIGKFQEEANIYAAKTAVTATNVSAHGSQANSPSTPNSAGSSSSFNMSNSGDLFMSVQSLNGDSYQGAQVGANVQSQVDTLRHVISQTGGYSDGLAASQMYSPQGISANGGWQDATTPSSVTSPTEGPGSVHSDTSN
UniProt P40306: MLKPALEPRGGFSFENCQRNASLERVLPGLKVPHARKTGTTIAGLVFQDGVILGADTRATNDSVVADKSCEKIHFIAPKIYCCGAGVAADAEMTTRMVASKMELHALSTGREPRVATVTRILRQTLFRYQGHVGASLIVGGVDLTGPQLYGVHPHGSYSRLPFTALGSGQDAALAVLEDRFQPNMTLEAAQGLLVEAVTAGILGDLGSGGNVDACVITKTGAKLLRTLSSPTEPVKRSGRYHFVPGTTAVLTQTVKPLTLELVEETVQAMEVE
UniProt P35499, whole entry, looked up: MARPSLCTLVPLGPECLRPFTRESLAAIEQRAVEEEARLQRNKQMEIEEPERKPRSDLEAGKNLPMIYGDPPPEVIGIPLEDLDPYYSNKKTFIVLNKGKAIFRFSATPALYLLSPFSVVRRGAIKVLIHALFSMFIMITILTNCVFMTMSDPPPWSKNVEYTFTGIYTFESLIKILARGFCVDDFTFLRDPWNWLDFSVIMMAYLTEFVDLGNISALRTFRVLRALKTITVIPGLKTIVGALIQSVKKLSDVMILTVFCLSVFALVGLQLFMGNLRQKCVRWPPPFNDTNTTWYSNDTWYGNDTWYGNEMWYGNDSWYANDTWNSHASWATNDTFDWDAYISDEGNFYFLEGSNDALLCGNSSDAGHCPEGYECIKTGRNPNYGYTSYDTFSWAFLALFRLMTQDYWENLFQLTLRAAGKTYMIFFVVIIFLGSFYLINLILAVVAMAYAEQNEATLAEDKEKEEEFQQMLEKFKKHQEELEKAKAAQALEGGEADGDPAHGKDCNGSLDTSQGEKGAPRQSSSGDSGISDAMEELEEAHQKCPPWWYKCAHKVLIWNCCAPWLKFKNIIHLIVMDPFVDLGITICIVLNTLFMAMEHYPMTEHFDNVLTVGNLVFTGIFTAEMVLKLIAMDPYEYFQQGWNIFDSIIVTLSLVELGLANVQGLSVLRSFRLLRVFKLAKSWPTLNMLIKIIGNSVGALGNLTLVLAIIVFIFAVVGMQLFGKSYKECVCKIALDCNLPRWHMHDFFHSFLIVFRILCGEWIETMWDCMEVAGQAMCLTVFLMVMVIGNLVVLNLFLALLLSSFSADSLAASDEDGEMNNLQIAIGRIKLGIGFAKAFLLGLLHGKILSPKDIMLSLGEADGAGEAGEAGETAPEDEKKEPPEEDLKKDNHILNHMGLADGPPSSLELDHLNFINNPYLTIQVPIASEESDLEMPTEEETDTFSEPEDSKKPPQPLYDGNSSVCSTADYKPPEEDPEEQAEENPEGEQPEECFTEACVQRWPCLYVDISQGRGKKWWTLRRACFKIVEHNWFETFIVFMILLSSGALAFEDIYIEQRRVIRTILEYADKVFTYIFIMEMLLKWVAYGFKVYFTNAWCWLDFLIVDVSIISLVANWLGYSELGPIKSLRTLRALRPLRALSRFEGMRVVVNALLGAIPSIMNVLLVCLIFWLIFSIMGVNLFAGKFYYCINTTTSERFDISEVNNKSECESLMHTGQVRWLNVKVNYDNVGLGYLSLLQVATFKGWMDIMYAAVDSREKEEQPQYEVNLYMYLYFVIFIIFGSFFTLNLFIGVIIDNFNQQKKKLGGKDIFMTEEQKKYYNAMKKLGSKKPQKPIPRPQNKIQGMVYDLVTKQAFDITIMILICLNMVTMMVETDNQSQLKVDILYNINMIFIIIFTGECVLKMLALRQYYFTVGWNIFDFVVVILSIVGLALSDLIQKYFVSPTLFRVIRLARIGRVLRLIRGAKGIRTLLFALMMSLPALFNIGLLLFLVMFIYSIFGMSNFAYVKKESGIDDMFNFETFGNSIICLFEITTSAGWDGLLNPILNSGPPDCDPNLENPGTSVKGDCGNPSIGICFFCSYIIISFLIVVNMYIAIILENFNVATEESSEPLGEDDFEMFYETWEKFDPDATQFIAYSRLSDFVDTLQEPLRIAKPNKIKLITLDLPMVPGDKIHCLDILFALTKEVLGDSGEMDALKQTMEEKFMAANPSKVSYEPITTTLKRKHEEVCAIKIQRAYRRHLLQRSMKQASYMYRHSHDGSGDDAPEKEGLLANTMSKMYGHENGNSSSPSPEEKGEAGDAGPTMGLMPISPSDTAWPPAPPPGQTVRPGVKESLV
UniProt P40692: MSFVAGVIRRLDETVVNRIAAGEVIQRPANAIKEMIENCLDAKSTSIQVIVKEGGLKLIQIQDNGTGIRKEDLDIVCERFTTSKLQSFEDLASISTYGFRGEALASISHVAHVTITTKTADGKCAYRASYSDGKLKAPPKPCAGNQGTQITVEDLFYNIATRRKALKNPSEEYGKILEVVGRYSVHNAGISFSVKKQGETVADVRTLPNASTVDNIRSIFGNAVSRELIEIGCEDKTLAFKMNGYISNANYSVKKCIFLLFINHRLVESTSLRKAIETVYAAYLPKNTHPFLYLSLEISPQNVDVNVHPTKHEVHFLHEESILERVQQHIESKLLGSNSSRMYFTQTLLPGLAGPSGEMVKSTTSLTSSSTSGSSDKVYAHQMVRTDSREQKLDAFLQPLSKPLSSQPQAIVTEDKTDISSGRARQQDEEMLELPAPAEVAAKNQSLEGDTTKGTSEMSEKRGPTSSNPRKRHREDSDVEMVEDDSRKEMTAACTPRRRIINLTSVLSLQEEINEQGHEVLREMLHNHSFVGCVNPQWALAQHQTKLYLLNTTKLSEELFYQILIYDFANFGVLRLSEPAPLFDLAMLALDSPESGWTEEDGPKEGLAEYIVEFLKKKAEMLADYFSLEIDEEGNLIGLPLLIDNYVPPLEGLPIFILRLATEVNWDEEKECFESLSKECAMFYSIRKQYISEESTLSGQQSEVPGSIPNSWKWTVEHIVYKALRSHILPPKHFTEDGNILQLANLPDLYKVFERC
UniProt P29401: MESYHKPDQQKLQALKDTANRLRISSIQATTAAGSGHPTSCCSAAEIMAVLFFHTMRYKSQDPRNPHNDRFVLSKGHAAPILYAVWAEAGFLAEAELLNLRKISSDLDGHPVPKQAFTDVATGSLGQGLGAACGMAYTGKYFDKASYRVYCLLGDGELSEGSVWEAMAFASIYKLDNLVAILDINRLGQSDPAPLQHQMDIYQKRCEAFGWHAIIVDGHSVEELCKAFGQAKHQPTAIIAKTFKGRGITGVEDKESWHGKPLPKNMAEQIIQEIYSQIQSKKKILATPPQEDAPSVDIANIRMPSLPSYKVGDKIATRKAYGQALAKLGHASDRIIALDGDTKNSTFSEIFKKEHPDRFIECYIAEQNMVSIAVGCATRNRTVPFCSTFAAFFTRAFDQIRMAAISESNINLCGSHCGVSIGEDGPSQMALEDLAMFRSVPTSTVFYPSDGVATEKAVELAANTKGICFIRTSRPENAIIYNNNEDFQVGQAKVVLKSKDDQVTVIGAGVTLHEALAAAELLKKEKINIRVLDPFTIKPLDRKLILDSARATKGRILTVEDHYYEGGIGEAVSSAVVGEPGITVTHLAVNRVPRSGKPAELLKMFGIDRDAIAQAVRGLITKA
UniProt P42263: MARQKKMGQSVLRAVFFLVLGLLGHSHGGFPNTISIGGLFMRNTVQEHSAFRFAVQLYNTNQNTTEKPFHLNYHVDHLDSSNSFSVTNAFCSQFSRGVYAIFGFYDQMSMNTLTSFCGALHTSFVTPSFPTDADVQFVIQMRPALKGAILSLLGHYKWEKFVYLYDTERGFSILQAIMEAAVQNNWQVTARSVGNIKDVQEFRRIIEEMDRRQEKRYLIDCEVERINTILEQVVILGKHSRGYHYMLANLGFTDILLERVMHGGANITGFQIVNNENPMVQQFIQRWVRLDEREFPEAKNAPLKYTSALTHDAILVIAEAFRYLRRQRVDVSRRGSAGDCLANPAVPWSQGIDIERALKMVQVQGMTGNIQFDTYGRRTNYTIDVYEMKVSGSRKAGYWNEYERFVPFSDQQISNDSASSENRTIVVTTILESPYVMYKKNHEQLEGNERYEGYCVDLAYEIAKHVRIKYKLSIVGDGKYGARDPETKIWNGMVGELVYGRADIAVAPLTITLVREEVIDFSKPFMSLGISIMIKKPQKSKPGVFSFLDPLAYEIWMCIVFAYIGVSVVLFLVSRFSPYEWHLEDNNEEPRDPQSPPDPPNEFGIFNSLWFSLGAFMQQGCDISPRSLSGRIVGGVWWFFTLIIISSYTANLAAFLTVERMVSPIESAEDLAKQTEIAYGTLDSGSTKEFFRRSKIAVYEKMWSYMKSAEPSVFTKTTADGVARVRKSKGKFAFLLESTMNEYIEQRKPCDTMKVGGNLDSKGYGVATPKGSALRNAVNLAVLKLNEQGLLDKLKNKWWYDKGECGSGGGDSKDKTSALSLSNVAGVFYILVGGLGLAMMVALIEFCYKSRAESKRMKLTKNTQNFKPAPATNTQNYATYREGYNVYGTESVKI
UniProt P30043: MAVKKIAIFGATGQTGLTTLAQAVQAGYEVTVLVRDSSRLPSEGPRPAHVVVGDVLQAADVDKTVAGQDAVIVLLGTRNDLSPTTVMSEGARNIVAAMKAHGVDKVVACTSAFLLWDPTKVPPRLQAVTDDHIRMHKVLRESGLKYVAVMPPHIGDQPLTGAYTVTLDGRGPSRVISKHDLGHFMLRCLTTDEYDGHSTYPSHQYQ
UniProt P39748, whole entry: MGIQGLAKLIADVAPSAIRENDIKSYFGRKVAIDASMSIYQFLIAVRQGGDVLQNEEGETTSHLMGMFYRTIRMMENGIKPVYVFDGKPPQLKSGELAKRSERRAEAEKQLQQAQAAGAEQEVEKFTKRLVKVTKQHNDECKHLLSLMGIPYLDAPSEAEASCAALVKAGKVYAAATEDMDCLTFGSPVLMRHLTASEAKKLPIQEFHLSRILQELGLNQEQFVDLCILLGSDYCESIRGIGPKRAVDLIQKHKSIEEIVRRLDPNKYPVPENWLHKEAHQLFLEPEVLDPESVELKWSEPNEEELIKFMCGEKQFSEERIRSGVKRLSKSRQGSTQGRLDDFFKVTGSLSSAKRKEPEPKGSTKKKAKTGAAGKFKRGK

The list shows a part of the results. Small differences around the control level are noise.

Compound in the assay: CN[C@@H]1C[C@H]2O[C@@](C)([C@@H]1OC)n1c3ccccc3c3c4c(c5c6ccccc6n2c5c31)C(=O)NC4 [staurosporine]
Kind of assay: log2 fold change of tryptic peptide abundance, ligand vs vehicle (limited proteolysis) (log2 ratio); higher = more trypsin-susceptible (destabilized). To be noted: ligand concentration: 20 uM; sample: K562 cleared lysate; digestion: 4 min, 22 C (HT-PELSA RT4min, Orbitrap Astral).
Take “POLD1 (peptide sequence: ESMFGYHGHGPSPFLR, peptide start residue: 196) (UniProt P28340)”: the log2 fold change is 0.211.
As for “IMPA1 (peptide sequence: SSPVDLVTATDQKVEK, peptide start residue: 37) (UniProt P29218)”, the figure is 0.261; as for “UniProt P41002 (peptide sequence: AVVHESLR, peptide start residue: 166)”, 0.408.
As for “P41778 (peptide sequence: KCGITVSQVSNWFGNKR, peptide start residue: 283) (UniProt P40424)”, the figure is -0.217; as for “ETFB (peptide sequence: YATLPNIMK, peptide start residue: 192) (UniProt P38117)”, 0.132.
In the case of “UniProt P32314 (peptide sequence: SYGNAFHHPSAVR, peptide start residue: 273)” it was 0.335; in that of “USP5 (peptide sequence: KYVDKLEK, peptide start residue: 353) (UniProt P45974)”, 0.361.
For “NAMPT (peptide sequence: NAQLNIELEAAHH, peptide start residue: 479) (UniProt P43490)”, the log2 fold change is -0.413.
In the case of “PIK3CA (peptide sequence: SMLLSSEQLK, peptide start residue: 231) (UniProt P42336)” it was 0.111.
In the case of “CTH (peptide sequence: VIYPGLPSHPQHELVKR, peptide start residue: 289) (UniProt P32929)” it was 0.399.
As for “NOP2 (peptide sequence: ILDMCCAPGGK, peptide start residue: 388) (UniProt P46087)”, the log2 fold change was determined as 0.649.
In the case of “ECE1 (peptide sequence: HTLGENIADNGGLK, peptide start residue: 663) (UniProt P42892)” it was 0.416; in that of “PSMB10 (peptide sequence: GGFSFENCQR, peptide start residue: 10) (UniProt P40306)”, 0.277; in that of “RBMX (peptide sequence: YDDYSSSR, peptide start residue: 310) (UniProt P38159)”, -0.189.
As for “STAT1 (peptide sequence: KFNILGTHTK, peptide start residue: 379) (UniProt P42224)”, the figure is -0.513; as for “HSPA4 (peptide sequence: QDLPALEEKPR, peptide start residue: 186) (UniProt P34932)”, -0.829; as for “SCN4A (peptide sequence: AFLLGLLHGK, peptide start residue: 838) (UniProt P35499)”, 0.464.
Turning to “MLH1 (peptide sequence: ELIEIGCEDK, peptide start residue: 227) (UniProt P40692)”, the log2 fold change was -0.251.
With “CBX5 (peptide sequence: LTWHAYPEDAENKEK, peptide start residue: 172) (UniProt P45973)”, the log2 fold change was -0.155.
“TKT (peptide sequence: AVELAANTK, peptide start residue: 457) (UniProt P29401)”: the log2 fold change was -0.334.
For “UniProt P41229 (peptide sequence: ARQALASEDVTALLGR, peptide start residue: 1292)”, the log2 fold change is 0.328.
In the case of “CTNNB1 (peptide sequence: LSVELTSSLFR, peptide start residue: 674) (UniProt P35222)” it was 0.172; in that of “SNCA (peptide sequence: EGVVHGVATVAEK, peptide start residue: 46) (UniProt P37840)”, 0.18.
In the case of “UniProt P42263 (peptide sequence: RIIEEMDRR, peptide start residue: 204)” it was 0.331.
In the case of “BRCA1 (peptide sequence: NLLEENFEEHSMSPER, peptide start residue: 997) (UniProt P38398)” it was 0.317; in that of “DNAJA1 (peptide sequence: ILEVHIDKGMKDGQK, peptide start residue: 207) (UniProt P31689)”, 0.736.
As to “SOX5 (peptide sequence: RTCLVDGK, peptide start residue: 631) (UniProt P35711)”, the log2 fold change is -0.544.
In the case of “BLVRB (peptide sequence: LQAVTDDHIR, peptide start residue: 125) (UniProt P30043)” it was -0.429; in that of “ARL4A (peptide sequence: NSLSLSEIEK, peptide start residue: 140) (UniProt P40617)”, 0.331; in that of “PDIA3 (peptide sequence: QAGPASVPLRTEEEFK, peptide start residue: 131) (UniProt P30101)”, 0.45.
In the case of “EPHX2 (peptide sequence: GPLNWYR, peptide start residue: 461) (UniProt P34913)” it was -0.258; in that of “CCND2 (peptide sequence: SHLQLLGAVCMFLASK, peptide start residue: 96) (UniProt P30279)”, -0.188; in that of “PCSK6 (peptide sequence: SIPLVQVLR, peptide start residue: 512) (UniProt P29122)”, 0.0199.
In the case of “NCAPD3 (peptide sequence: GSVMPSVIR, peptide start residue: 912) (UniProt P42695)” it was 0.548; in that of “FEN1 (peptide sequence: LIADVAPSAIRENDIK, peptide start residue: 9) (UniProt P39748)”, 0.235.
Take “UQCRC1 (peptide sequence: NNGAGYFLEHLAFK, peptide start residue: 86) (UniProt P31930)”: the log2 fold change is 0.312.
In the case of “UniProt P41250 (peptide sequence: IMYTVFEHTFHVR, peptide start residue: 584)” it was 0.205.
As for “UniProt P28562 (peptide sequence: LLAGAYHAVVLLDER, peptide start residue: 75)”, the figure is 0.361; as for “SPR (peptide sequence: VLNYAPGPLDTDMQQLAR, peptide start residue: 193) (UniProt P35270)”, 0.362.
